The source of these data is PMC9668731.

Chains of the proteins cited; added tags and fusions are not shown. Lines headed by an entry give the natural chain unless they say otherwise; changes in a name come on top.
UniProt P50466: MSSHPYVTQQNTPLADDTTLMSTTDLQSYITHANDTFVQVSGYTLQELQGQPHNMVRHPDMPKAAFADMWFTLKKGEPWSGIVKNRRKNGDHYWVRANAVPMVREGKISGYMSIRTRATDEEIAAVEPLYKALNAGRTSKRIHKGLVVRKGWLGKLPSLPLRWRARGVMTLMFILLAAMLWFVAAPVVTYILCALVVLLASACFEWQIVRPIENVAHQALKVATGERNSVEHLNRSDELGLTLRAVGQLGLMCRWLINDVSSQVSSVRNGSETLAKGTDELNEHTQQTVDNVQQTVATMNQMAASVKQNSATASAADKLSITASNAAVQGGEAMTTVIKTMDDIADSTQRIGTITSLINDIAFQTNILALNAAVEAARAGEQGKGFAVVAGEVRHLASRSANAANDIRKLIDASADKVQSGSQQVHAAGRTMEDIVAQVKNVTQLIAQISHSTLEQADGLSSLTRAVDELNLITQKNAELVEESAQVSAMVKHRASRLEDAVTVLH

Experiment [1] has as its target Aer-PAS-GVV (Aer 7–135 S28G A65V A99V, the Aer PAS triple mutant) (E. coli) (UniProt P50466). Description: SEC; Superdex S75 preparatory column, after nickel–nitrilotriacetic acid elution; both purified. On the technique in general: Size exclusion chromatography separates by hydrodynamic size, large species first.
Experiment [2] shares this target. Briefly: SEC-SAXS; about 100 μl at 4.5 to 5.5 mg/ml on a Superdex 75 Increase column in 50 mM HEPES pH 8.0, 150 mM KCl, 10 mM MgCl2; molecular weight from the SAXS-derived Porod volume; both purified.

These are yes or no findings as the source states them, for the method shown.

As for “Aer-PAS-GVV (Aer 7–135 S28G A65V A99V, the Aer PAS triple mutant) (from UniProt P50466 7-135) (domain or fragment)”, the binding result in experiment [1] is given as “no binding”; in experiment [2] it was “no binding (tested: 4.5 to 5.5 mg/ml)”.
